Reference: PubChem BioAssay AID1259308 (NCATS, 2017)
Shown is an unselected part of about 59,000 reagents. About 1,510 of them (2.6%) count as active. 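Calls use total luciferase alone and ignore viability, so some active siRNAs may act by altering cell number.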 The numbers tell different reagents against one gene apart. Not all columns of the deposit are shown. Reagent sequences are not shown.

Test: 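Genes whose loss raises luciferase production in HEK293 cells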 (primary screen)
Cells: human HEK293 embryonic kidney cells stably expressing firefly luciferase (HEK-CMV-Luc2-Hygro)
Knock-down reagent: single siRNA against human genes, 0.8 pmol siRNA per well
Timing: 72 h
Measured: 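Luciferase light (ONE-Glo) measured on one replicate plate set and viability (CellTiter-Glo) on the other, scaled to a negative control siRNA, with robust z-scores and luciferase per cell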
Direction: total luciferase, z-score: higher = more reporter protein produced
Hit rule: 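Active when the median/MAD z-score for overall luciferase is greater than 3; a gene was taken forward for validation with new siRNAs if at least two of its three siRNAs passed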
Calls: active = raised luciferase; inactive = no rise

For TRAK2 (GeneID 66008) #1, the entry reads total luciferase, z-score 0.452; inactive.
After knock-down of TRAK2 (GeneID 66008) #2, the record shows total luciferase, z-score -0.566; inactive.
TRAK2 (GeneID 66008) #3 gave total luciferase, z-score 0.895; inactive.
Silencing of PDZD2 (GeneID 23037) #1 gave: total luciferase, z-score 0.69; inactive.
For PDZD2 (GeneID 23037) #2, the entry reads total luciferase, z-score -1.04; inactive.
After knock-down of PDZD2 (GeneID 23037) #3 the results were total luciferase, z-score -0.297; inactive.
For CDC42EP5 (GeneID 148170) #1, the entry reads total luciferase, z-score 2.3; inactive.
Depletion of CDC42EP5 (GeneID 148170) #2 came out at: total luciferase, z-score -0.214; inactive.
After knock-down of CDC42EP5 (GeneID 148170) #3, the screen gave total luciferase, z-score 1.81; inactive.
Depletion of MEGF6 (GeneID 1953) #1 came out at: total luciferase, z-score -0.893; inactive.
MEGF6 (GeneID 1953) #2 gave total luciferase, z-score 0.252; inactive.
MEGF6 (GeneID 1953) #3 showed total luciferase, z-score -2.03; inactive.
MCUB (GeneID 55013) #1 gave total luciferase, z-score 4.6; active.
Knock-down of MCUB (GeneID 55013) #2 resulted in: total luciferase, z-score -2.12; inactive.
Knock-down of MCUB (GeneID 55013) #3 came out at: total luciferase, z-score -1.15; inactive.
For PCYOX1 (GeneID 51449) #1, the values are total luciferase, z-score 0.438; inactive.
Against PCYOX1 (GeneID 51449) #2 the deposit lists total luciferase, z-score -0.803; inactive.
Against PCYOX1 (GeneID 51449) #3, the values are total luciferase, z-score -0.96; inactive.
Silencing of DNAAF3 (GeneID 352909) #1 resulted in: total luciferase, z-score 0.101; inactive.
Against DNAAF3 (GeneID 352909) #2, the values are total luciferase, z-score 1.67; inactive.
After knock-down of DNAAF3 (GeneID 352909) #3 the results were total luciferase, z-score -0.0998; inactive.
For PGLS (GeneID 25796) #1 the deposit lists total luciferase, z-score -0.411; inactive.
After knock-down of PGLS (GeneID 25796) #2, the record shows total luciferase, z-score -0.66; inactive.
After knock-down of PGLS (GeneID 25796) #3, the record shows total luciferase, z-score 0.814; inactive.
Against CAMP (GeneID 820) #1, the entry reads total luciferase, z-score 1.86; inactive.
Silencing of CAMP (GeneID 820) #2 gave: total luciferase, z-score -2.03; inactive.
CAMP (GeneID 820) #3 gave total luciferase, z-score -2.89; inactive.
For SLC25A48 (GeneID 153328) #1, the entry reads total luciferase, z-score 0.73; inactive.
After knock-down of SLC25A48 (GeneID 153328) #2, the record shows total luciferase, z-score 1.52; inactive.
SLC25A48 (GeneID 153328) #3 scored total luciferase, z-score 2.72; inactive.
Knock-down of H2BC3 (GeneID 3018) #1 came out at: total luciferase, z-score -0.638; inactive.
H2BC3 (GeneID 3018) #2 gave total luciferase, z-score -0.859; inactive.
H2BC3 (GeneID 3018) #3 showed total luciferase, z-score -0.876; inactive.
